Reference: patent US20260008757A1, “N-(3-(AMINOMETHYL)-PHENYL)-5-(4-PHENYL)-5-(TRIFLUOROMETHYL)-4,5-DIHYDROISOXAZOL-3-AMINE DERIVATIVES AND SIMILAR COMPOUNDS AS PESTICIDES” (BASF SE, priority 2022, published 2026)
Where two headings read alike, the source gives them in different places. Some results were stated once for a whole list of compounds, not compound by compound.

Tested on: Aedes aegypti
Format: in vivo
Conditions: larval mortality after 2 days

| SMILES | mortality in comparison with untreated controls (800 ppm) | mortality in comparison with untreated controls (2500 ppm) |
| --- | --- | --- |
| COCCC(=O)NCc1cc(NC2=NOC(c3cc(Cl)cc(Cl)c3)(C(F)(F)F)C2)ccc1F (stereo not shown) [I-3] | at least 75% | at least 75% |
| CS(=O)(=O)CC(=O)NCc1cc(NC2=NOC(c3cc(Cl)cc(Cl)c3)(C(F)(F)F)C2)ccc1F (stereo not shown) [I-4] | at least 75% | at least 75% |
| O=C(CC1CC1)NCc1cc(NC2=NOC(c3cc(Cl)cc(Cl)c3)(C(F)(F)F)C2)ccc1F (stereo not shown) [I-6] | at least 75% | at least 75% |
| COCC(=O)NCc1cc(NC2=NOC(c3cc(Cl)cc(Cl)c3)(C(F)(F)F)C2)ccc1F (stereo not shown) [I-9] |  | at least 75% |
| O=C(NCc1cc(NC2=NOC(c3cc(Cl)cc(Cl)c3)(C(F)(F)F)C2)ccc1F)c1ccccn1 (stereo not shown) [I-11] |  | at least 75% |
| CON=CC(=O)NCc1cc(NC2=NOC(c3cc(Cl)cc(Cl)c3)(C(F)(F)F)C2)ccc1F (stereo not shown) [I-12] |  | at least 75% |
| CCS(=O)(=O)NCc1cc(NC2=NOC(c3cc(Cl)cc(Cl)c3)(C(F)(F)F)C2)ccc1F (stereo not shown) [I-13] | at least 75% | at least 75% |
| O=C(NCc1cc(NC2=NOC(c3cc(Cl)c(F)c(Cl)c3)(C(F)(F)F)C2)ccc1Cl)C1CC1 (stereo not shown) [I-14] | at least 75% | at least 75% |
| CCN(C1=NOC(c2cc(Cl)c(F)c(Cl)c2)(C(F)(F)F)C1)c1ccc(F)c(CNC(=O)C2CC2)c1 (stereo not shown) [I-15] | at least 75% | at least 75% |
| O=C(NCc1cc(NC2=NOC(c3cc(Cl)c(F)c(Cl)c3)(C(F)(F)F)C2)ccc1F)C1CC1 (stereo not shown) [I-16] | at least 75% | at least 75% |
| CN(Cc1cc(NC2=NOC(c3cc(Cl)c(F)c(Cl)c3)(C(F)(F)F)C2)ccc1F)C(=O)C1CC1 (stereo not shown) [I-17] | at least 75% | at least 75% |
| O=C(NCc1cc(NC2=NOC(c3cc(Cl)c(F)c(Cl)c3)(C(F)(F)F)C2)ccc1OC(F)(F)F)C1CC1 (stereo not shown) [I-18] | at least 75% | at least 75% |
| Cc1ccc(NC2=NOC(c3cc(Cl)c(F)c(Cl)c3)(C(F)(F)F)C2)cc1CNC(=O)C1CC1 (stereo not shown) [I-20] | at least 75% | at least 75% |
| O=C(NCc1cc(NC2=NOC(c3ccc(F)c(Cl)c3)(C(F)(F)F)C2)ccc1Cl)C1CC1 (stereo not shown) [I-21] | at least 75% | at least 75% |
| O=C(NCc1cc(OC2=NOC(c3cc(Cl)c(F)c(Cl)c3)(C(F)(F)F)C2)ccc1F)C1CC1 (stereo not shown) [I-22] | at least 75% | at least 75% |
| O=C(NCc1cc(NC2=NOC(c3ccc(F)c(Cl)c3)(C(F)(F)F)C2)ccc1Cl)C1CCC1 (stereo not shown) [I-23] | at least 75% |  |
| CC(C)C(=O)NCc1cc(NC2=NOC(c3ccc(F)c(Cl)c3)(C(F)(F)F)C2)ccc1Cl (stereo not shown) [I-25] | at least 75% |  |
| O=C(CNC(=O)C1CC1)NCc1cc(NC2=NOC(c3ccc(F)c(Cl)c3)(C(F)(F)F)C2)ccc1Cl (stereo not shown) [I-26] | at least 75% |  |
| O=C(Cc1ccccc1)NCc1cc(NC2=NOC(c3ccc(F)c(Cl)c3)(C(F)(F)F)C2)ccc1Cl (stereo not shown) [I-27] | at least 75% |  |
| CC(C)CC(=O)NCc1cc(NC2=NOC(c3ccc(F)c(Cl)c3)(C(F)(F)F)C2)ccc1Cl (stereo not shown) [I-28] | at least 75% |  |
| O=C(NCc1cc(NC2=NOC(c3ccc(F)c(Cl)c3)(C(F)(F)F)C2)ccc1Cl)C1CC=CC1 (stereo not shown) [I-29] | at least 75% |  |
| N#CC1(C(=O)NCc2cc(NC3=NOC(c4ccc(F)c(Cl)c4)(C(F)(F)F)C3)ccc2Cl)CC1 (stereo not shown) [I-32] | at least 75% |  |
